This note sets out measurements from article PMC3628100.

Chains of the proteins cited; added tags and fusions are not shown. Residues count along the entry.
UniProt P15943, residues 32-765: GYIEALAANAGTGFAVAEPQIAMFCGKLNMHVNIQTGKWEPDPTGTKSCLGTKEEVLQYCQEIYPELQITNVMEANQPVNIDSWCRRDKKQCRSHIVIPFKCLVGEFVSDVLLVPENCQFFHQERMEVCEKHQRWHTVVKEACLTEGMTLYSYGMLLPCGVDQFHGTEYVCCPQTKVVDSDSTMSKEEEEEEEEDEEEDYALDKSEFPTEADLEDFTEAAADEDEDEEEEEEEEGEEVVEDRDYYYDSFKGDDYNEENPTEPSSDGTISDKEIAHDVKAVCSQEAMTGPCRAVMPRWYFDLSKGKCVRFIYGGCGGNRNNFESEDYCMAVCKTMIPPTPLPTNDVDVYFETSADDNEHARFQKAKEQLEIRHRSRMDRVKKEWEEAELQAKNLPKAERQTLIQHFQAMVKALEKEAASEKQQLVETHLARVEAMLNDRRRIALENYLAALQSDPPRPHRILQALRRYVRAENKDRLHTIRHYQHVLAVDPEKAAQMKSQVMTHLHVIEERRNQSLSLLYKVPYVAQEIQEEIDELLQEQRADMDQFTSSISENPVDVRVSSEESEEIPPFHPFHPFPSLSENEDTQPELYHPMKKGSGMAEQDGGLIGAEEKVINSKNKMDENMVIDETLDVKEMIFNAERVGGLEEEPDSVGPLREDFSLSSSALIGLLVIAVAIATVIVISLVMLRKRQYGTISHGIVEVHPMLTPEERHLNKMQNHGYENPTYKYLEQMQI
UniProt P08592, residues 18-770: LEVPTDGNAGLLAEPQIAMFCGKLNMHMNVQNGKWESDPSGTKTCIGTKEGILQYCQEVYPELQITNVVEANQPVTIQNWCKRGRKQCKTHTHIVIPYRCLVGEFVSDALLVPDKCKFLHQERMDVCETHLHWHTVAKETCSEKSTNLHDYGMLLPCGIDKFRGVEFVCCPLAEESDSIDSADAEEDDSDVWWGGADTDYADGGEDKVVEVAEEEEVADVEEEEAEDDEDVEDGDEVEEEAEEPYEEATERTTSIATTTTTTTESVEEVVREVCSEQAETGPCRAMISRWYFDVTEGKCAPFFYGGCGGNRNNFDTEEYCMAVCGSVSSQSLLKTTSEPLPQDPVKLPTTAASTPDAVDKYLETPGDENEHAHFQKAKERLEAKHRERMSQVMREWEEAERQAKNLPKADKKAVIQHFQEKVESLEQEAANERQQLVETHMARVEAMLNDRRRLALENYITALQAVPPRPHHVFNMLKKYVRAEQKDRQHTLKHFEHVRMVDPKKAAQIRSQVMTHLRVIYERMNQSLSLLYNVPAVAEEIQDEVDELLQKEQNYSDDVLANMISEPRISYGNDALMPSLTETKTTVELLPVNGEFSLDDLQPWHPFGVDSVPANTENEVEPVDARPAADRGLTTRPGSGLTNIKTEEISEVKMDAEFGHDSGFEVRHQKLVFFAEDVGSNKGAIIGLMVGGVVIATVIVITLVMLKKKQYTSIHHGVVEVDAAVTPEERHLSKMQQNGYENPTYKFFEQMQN

No constants are given. Whether binding was seen depends on the method and setting. In cells and extracts the contact can be indirect. Some entries that bind do so weakly or less than the wild type.

In test [1] the target is T1, SREBP1 (sterol regulatory element binding protein 1), endogenous in rat cortical neurons (rat (endogenous in primary cortical neurons)) (UniProt P56720).
T1 sequence: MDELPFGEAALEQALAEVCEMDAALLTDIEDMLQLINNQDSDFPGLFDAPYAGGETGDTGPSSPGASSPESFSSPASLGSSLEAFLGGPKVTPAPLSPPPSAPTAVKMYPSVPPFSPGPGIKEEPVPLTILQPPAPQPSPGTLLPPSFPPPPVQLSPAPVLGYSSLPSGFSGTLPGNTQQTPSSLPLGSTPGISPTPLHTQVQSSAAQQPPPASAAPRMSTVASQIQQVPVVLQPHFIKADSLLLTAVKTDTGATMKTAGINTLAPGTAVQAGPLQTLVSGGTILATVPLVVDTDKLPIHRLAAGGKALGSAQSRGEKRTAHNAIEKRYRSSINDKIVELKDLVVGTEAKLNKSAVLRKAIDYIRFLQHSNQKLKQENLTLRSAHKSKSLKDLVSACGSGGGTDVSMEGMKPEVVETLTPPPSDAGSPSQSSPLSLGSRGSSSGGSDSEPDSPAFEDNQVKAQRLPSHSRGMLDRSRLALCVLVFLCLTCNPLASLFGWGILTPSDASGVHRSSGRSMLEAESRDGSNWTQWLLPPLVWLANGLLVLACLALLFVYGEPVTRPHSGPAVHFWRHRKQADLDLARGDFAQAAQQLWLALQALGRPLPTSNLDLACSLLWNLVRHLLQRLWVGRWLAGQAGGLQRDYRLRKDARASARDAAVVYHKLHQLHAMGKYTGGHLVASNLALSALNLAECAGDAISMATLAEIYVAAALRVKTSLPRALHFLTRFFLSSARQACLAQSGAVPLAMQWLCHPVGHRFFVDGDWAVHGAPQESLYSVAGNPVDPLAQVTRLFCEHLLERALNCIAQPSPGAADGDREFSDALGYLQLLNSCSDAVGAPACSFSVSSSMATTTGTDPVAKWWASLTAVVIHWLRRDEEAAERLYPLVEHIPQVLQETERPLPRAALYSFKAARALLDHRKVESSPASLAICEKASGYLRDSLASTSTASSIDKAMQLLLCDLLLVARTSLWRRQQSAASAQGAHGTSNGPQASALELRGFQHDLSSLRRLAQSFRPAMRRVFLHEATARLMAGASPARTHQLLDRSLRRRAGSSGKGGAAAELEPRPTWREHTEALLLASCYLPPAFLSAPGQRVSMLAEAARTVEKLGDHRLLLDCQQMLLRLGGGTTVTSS
In words: co-IP; Supporting Information Fig 7; cells and precipitating antibody not given.

The target of test [2] is T1, SREBP1 (sterol regulatory element binding protein 1), endogenous in rat cortical neurons (rat (endogenous in primary cortical neurons)). In words: co-IP; endogenous proteins of neurons, no APP overexpression (Supporting Information Fig 6); precipitating antibody not given.
The target in test [3] is T2, SCAP (SREBP-cleavage-activating protein), endogenous in rat cortical neurons (rat (endogenous in primary cortical neurons)) (UniProt A2RRU4).
T2 sequence: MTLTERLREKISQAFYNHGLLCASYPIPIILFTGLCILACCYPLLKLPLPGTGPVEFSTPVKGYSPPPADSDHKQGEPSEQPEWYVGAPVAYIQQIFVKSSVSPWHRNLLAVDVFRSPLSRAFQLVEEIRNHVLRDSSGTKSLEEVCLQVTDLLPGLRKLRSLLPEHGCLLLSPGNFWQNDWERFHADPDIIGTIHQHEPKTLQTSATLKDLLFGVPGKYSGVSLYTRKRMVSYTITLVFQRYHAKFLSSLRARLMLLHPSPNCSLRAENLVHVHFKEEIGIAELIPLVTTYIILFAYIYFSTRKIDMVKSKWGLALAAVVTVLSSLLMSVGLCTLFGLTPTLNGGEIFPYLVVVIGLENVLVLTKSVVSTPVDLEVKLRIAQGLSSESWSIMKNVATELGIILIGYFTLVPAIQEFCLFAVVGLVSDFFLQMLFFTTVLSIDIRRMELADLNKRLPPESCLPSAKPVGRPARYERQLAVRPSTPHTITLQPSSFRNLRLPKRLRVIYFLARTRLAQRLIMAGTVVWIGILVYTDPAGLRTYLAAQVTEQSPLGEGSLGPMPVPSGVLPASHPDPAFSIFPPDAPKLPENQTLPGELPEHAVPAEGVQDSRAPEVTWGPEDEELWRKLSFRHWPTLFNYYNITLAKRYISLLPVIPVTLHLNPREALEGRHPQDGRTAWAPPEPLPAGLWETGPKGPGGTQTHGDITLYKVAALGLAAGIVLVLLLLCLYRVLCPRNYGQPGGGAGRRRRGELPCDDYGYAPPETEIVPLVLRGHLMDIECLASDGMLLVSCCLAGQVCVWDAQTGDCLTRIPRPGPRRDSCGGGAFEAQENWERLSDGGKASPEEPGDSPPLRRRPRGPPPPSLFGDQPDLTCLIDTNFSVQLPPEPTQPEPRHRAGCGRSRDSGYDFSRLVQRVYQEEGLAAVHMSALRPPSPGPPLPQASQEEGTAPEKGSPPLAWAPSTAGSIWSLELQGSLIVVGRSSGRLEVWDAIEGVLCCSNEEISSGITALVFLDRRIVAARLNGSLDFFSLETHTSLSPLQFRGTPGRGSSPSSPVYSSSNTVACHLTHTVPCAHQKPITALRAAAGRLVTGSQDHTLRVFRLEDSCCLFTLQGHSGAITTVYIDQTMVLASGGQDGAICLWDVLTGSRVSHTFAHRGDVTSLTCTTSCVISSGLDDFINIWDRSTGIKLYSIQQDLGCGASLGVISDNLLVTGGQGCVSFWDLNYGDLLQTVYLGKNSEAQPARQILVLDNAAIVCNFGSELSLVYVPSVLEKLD
The test is described as follows: co-IP; lysates of primary rat cortical neurons, precipitated with 2 µg anti-SCAP K19 antibody overnight at 4°C, protein A-sepharose; 25 mM Tris pH 6.8, 0.5% Triton X-100, 0.5% Nonidet P-40; Western blot.

In the case of “APLP2 (APP-like protein 2) (from UniProt P15943 32-765)”, the binding entry in test [1] is “binds”. As to “endogenous neuronal APP (from UniProt P08592 18-770)”, in test [2], the binding result is “binds”.

In the case of “wild-type human APP695 (amyloid precursor protein), expressed in rat cortical neurons (from UniProt P05067-4 18-695)”, the binding entry in test [3] was “binds”.
